No constants are given. Whether binding was seen depends on the method and setting. In cells and extracts the contact can be indirect. Some results given as binding are weak or reduced against the parent protein; the word gives no strength. Tags and fused reporters may be left off the sequences shown.
Target: T1, wild-type FAM46C, C-terminally Myc-DDK tagged (human) (UniProt Q5VWP2)
T1 sequence: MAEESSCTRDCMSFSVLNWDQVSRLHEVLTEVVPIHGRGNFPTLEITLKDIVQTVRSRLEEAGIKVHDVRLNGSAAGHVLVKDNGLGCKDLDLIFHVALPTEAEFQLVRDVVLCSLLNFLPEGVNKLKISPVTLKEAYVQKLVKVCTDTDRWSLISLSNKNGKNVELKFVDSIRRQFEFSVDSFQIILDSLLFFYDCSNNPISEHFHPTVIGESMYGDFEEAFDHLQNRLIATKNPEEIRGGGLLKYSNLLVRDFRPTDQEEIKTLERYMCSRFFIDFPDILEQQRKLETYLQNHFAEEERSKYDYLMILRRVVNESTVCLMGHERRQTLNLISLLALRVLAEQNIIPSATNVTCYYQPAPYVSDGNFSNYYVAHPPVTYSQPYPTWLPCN
Experiment: co-IP; anti-FLAG immunoprecipitation of FAM46C from HEK-293T lysate as for the mass spectrometry, Western blotting with α-MYH9 and α-PDIA3 antibodies; in the presence of viral proteins

Sequences of proteins named here, by UniProt entry; tags and fusion partners are left off. Residues count along the entry.
UniProt P30101, residues 25-505: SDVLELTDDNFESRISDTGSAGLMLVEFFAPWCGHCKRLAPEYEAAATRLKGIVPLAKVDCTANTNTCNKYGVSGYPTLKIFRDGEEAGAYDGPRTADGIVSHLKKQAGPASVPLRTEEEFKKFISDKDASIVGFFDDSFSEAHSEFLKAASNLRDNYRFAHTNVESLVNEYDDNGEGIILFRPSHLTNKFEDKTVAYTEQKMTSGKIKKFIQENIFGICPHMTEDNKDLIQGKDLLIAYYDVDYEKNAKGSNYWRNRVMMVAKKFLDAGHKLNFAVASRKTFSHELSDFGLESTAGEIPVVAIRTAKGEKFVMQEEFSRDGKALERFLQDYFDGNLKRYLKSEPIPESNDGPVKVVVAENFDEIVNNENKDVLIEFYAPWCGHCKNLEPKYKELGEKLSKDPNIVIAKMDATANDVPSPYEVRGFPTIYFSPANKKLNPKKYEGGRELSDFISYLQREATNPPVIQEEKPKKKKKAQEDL
UniProt P35579: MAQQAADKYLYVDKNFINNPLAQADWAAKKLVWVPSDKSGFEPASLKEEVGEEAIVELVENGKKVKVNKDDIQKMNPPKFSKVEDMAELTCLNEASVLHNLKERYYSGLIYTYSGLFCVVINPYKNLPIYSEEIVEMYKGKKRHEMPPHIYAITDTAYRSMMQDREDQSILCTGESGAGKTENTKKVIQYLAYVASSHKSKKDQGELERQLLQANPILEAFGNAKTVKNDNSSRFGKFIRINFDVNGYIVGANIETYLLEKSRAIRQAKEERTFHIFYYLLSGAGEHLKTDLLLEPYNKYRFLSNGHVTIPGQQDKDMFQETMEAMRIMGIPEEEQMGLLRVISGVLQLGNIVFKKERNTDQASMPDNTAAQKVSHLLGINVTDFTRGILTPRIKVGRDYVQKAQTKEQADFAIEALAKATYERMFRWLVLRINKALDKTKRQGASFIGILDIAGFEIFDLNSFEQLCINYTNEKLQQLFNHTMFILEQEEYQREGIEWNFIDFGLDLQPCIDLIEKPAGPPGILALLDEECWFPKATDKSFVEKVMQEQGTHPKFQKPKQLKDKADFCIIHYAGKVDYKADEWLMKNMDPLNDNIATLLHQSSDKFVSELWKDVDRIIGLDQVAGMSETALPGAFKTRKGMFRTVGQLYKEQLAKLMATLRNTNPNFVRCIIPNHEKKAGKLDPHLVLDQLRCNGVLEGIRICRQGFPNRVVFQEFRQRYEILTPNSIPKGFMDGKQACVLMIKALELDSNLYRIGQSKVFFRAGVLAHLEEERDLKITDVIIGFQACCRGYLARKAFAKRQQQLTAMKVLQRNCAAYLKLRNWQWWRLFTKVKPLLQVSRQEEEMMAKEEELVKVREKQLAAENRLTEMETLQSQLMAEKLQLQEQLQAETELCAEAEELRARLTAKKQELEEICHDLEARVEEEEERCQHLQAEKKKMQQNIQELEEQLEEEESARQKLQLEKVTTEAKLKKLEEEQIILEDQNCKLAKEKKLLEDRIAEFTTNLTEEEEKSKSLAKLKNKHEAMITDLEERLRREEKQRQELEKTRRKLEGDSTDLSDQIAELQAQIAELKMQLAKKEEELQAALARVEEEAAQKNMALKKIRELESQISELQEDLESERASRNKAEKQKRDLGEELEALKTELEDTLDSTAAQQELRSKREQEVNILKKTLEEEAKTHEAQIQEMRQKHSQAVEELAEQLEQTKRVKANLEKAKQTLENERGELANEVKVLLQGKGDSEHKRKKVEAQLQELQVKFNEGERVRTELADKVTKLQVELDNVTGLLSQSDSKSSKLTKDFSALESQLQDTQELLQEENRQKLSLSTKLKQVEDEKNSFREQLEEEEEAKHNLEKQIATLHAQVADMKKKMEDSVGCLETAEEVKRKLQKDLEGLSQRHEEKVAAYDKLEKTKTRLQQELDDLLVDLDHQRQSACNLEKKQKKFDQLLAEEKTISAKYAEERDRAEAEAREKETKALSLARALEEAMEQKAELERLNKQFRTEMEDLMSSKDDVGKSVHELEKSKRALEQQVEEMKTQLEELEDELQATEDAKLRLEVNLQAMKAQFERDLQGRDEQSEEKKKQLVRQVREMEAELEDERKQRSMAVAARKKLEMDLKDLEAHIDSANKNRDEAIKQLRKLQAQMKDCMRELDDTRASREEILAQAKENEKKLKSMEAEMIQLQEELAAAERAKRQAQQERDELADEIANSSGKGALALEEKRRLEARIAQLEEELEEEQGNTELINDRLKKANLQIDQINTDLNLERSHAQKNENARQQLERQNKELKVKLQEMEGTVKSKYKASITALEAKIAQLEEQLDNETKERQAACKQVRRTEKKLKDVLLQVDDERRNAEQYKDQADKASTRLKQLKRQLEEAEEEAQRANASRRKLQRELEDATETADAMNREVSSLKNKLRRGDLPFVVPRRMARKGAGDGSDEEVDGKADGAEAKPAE

Substance	binding
PDIA3 (from UniProt P30101 25-505)	binds
Myosin-9 (MYH9) (from UniProt P35579 1-1960)	binds

Reference: PMC10434054
